{"source": "paper PMC3847324", "about": "“Jun dimerization protein 2 is a critical component of the Nrf2/MafK complex regulating the response to ROS homeostasis”", "key": {"[1]": {"tested_on": "Nrf2 (MEF nuclear extract) + MafK (MEF nuclear extract)", "assay": "EMSA supershift", "settings": "Jdp2 KO MEF nuclear extract; EMSA: 5 ug GST fusion or 10 ng IVT protein, 25 C 30 min; 5% native PAGE in 0.5x TBE at 4 C; binding buffer, salt and pH not given; protein in an extract"}, "[2]": {"tested_on": "JDP2 (MEF nuclear extract) + Nrf2 (MEF nuclear extract) + MafK (MEF nuclear extract)", "assay": "EMSA supershift", "settings": "WT MEF nuclear extract; EMSA: 5 ug GST fusion or 10 ng IVT protein, 25 C 30 min; 5% native PAGE in 0.5x TBE at 4 C; binding buffer, salt and pH not given; protein in an extract"}}, "note": "Construct, isoform or probe ends are uncertain for at least one entry. At least one result comes from cells or an extract, where the contact may be indirect.", "data": [{"sequence": "CAGTCACAGTGACTCAGCAGAATCT (double strand) [human NQO1-ARE WT]", "values": [{"measurement": "binding result", "setting": "[1]", "result": "binds"}, {"measurement": "binding result", "setting": "[2]", "result": "binds"}]}]}
